Results from article PMC9040800.
No constants are given. Whether binding was seen depends on the method and setting. For some assays here: A result given as binding can be weak or reduced; the word gives no strength.

What was measured:
[1] = target: recombinant d-IIA^Glc (V. vulnificus); experiment: native gel or EMSA; recombinant proteins mixed in 50 mM Tris-HCl pH 8.0, 20 mM KCl, 50 mM MgCl2, 100 mM NaCl, 30 min at 30°C; 12% native polyacrylamide gel, Coomassie stain; a new band is read as the complex; both purified
[2] = target: recombinant original DctD2 (DctDWT) (V. vulnificus); experiment: as above

B1: recombinant GlpK (rGlpK) (enzyme, UniProt Q7MI93 1-505)
chain: MTEQKYIVALDQGTTSSRAVVLDHDANIVSVSQREFTQIYPQAGWVEHDPMEIYATQSSTLVEALGKKGIRSDQVAAIGITNQRETTIVWNKETGKPVYNAIVWQCRRTADICEDLKARGLESYIRENTGLVLDPYFSGTKVKWILDNVEGAREDAEAGKLLFGTVDTWLVWKMTQGRVHVTDYTNASRTMLFNINDLCWDSKLLEEMGIPASMMPEVKRSSEIYGQTNIGGKGGTRIPISGIAGDQQAALYGQMCVEAGQAKNTYGTGCFLLMNTGQEKVTSRNGLLTTLACGPKGEPAYALEGAVFMGGASIQWLRDELKLISDAHDSEYFATKVDTSNGVYVVPAFTGLGAPYWDAYARGTIVGLTRGVNSNHIIRATLEGIAYQTRDVLDAMQADSGIKLSALRVDGGAVANNFLMQFQSDVLDTEVHRPKVTEVTALGAAYLAGLAVGYWNSIDELQGKAEIDRSFLPHQDEEKRSRRYKGWKRAVKCAQTWSELRDLED
Question: For B1, which binding [1] is on record?
Answer: binds

Question: What about the binding [2] of the same binder?
Answer: no binding (tested: 5 μM)
